Test results from article PMC10617771.
These are yes or no findings as the source states them, for the method shown. In cells and extracts the contact can be indirect. Some binding calls cover weakened binding; strength is not graded here. Each block holds one binder with its values, some of them ahead of it.

Experiments:
[1] = target: T1, DUSP8 (endogenous, human peripheral blood T cells) (human (endogenous in peripheral blood T cells)) (UniProt Q13202); test: proximity ligation; in situ PLA (Duolink in situ-red kit), methanol-fixed human peripheral blood T cells freshly isolated from people with asthma, people with atopic dermatitis and healthy controls; antibodies against DUSP8 and Pur-α, < 40 nm
T1 sequence: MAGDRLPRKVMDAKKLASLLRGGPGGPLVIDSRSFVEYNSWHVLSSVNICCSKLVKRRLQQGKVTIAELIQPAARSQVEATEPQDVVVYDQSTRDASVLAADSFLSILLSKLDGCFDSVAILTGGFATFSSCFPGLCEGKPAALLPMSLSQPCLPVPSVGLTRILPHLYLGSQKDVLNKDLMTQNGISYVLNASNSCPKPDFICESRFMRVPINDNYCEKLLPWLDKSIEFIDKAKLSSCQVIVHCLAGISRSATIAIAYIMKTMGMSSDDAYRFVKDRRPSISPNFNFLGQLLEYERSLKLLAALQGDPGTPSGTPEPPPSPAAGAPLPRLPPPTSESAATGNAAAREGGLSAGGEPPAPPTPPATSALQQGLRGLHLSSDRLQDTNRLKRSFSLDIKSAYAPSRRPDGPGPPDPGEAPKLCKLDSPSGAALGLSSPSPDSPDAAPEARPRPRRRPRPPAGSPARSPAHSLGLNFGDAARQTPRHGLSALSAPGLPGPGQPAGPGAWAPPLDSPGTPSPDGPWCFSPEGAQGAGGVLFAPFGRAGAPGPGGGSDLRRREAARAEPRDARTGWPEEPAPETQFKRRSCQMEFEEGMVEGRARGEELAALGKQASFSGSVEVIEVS

[2] = target: T2, DUSP8 (endogenous, murine primary T cells) (mouse (endogenous in murine primary T cells)) (UniProt O09112); test: proximity ligation; in situ PLA (Duolink in situ-red kit), methanol-fixed murine primary T cells, antibodies against DUSP8 and Pur-α, < 40 nm; with and without TGF-β stimulation
T2 sequence: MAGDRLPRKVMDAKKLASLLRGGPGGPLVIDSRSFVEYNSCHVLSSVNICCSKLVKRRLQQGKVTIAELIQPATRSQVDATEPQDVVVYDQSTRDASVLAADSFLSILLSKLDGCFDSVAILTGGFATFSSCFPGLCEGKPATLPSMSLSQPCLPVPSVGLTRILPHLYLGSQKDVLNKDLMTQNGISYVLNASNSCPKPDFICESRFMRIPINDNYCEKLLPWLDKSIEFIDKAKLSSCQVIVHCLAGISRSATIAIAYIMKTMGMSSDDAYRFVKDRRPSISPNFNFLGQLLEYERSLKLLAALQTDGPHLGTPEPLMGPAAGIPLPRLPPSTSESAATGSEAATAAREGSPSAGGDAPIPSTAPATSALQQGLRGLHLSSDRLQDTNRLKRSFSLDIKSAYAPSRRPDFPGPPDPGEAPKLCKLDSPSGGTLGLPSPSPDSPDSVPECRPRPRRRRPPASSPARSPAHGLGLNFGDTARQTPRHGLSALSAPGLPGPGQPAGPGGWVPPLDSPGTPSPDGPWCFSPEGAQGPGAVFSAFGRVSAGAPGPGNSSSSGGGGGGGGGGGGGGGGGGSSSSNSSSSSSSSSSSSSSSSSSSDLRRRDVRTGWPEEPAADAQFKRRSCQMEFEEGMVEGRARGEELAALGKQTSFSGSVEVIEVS

binding [1]: binds
B1: Pur-α (endogenous, human peripheral blood T cells) (protein, UniProt Q00577 1-322)
chain: MADRDSGSEQGGAALGSGGSLGHPGSGSGSGGGGGGGGGGGGSGGGGGGAPGGLQHETQELASKRVDIQNKRFYLDVKQNAKGRFLKIAEVGAGGNKSRLTLSMSVAVEFRDYLGDFIEHYAQLGPSQPPDLAQAQDEPRRALKSEFLVRENRKYYMDLKENQRGRFLRIRQTVNRGPGLGSTQGQTIALPAQGLIEFRDALAKLIDDYGVEEEPAELPEGTSLTVDNKRFFFDVGSNKYGVFMRVSEVKPTYRNSITVPYKVWAKFGHTFCKYSEEMKKIQEKQREKRAACEQLHQQQQQQQEETAAATLLLQGEEEGEED

binding [2]: binds
B2: Pur-α (endogenous, murine primary T cells) (protein, UniProt P42669 1-321)
chain: MADRDSGSEQGGAALGSGGSLGHPGSGSGSGGGGGGGGGGGGSGGGGGAPGGLQHETQELASKRVDIQNKRFYLDVKQNAKGRFLKIAEVGAGGNKSRLTLSMSVAVEFRDYLGDFIEHYAQLGPSQPPDLAQAQDEPRRALKSEFLVRENRKYYMDLKENQRGRFLRIRQTVNRGPGLGSTQGQTIALPAQGLIEFRDALAKLIDDYGVEEEPAELPEGTSLTVDNKRFFFDVGSNKYGVFMRVSEVKPTYRNSITVPYKVWAKFGHTFCKYSEEMKKIQEKQREKRAACEQLHQQQQQQQEETTAATLLLQGEEEGEED
